Assay [1] concerns the target T1, 10 mer peptide 10(4), ….
T1 sequence (peptide): RSKAKNPLYR
Kind of assay: peptide ELISA with ERK2 cleaved from GST-ERK2 by thrombin.

By UniProt entry, the sequences of proteins in these tests, tags left out. Where a name states a change or a piece, a line headed by the entry shows the natural chain unless it says otherwise.
UniProt P45983: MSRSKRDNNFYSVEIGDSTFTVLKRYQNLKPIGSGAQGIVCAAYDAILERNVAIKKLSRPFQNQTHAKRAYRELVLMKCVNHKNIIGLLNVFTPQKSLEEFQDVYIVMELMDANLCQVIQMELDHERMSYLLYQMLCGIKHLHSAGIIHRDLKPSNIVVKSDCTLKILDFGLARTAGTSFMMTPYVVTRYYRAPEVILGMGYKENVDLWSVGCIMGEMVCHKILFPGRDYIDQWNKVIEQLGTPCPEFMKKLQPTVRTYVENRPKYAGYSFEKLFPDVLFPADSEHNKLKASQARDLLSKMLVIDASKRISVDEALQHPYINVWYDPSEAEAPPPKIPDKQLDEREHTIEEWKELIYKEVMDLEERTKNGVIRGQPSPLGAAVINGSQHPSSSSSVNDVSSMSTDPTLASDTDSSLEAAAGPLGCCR

The target in assay [2] is T2, 15 mer test peptide seq. 4, ….
T2 sequence (peptide, biotinylated): RSKAKWQTGTNPLYR
The description is as above.

Assay [3] has as its target T3, β6 cytoplasmic tail peptide (52 amino acid long β6 cytoplasmic tail).
T3 sequence (peptide): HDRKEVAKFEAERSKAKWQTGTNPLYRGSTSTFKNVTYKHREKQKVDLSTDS
Kind of assay: plate assay with increasing concentrations of the β6 cytoplasmic tail peptide, detection with anti-JNK-1 mAb SC 474-G.

These are yes or no findings as the source states them, for the method shown. A result given as binding can be weak or reduced; the word gives no strength.

For the substance “ERK2 cleaved from GST-ERK2 by thrombin (enzyme)”, the binding result in assay [1] and in assay [2] was “binds” in each case.

As to “MAP kinase JNK-1 (Santa Cruz) (from UniProt P45983) (enzyme)”, the binding result in assay [3] is on record as “binds”.

Values taken from patent US20140187612A1.
